# Measurements from the supplement of paper PMC10849652.
# Amino acid sequences for entries named in this document (tags omitted). A change or cut given only in a name is not applied to a line headed by its entry.
# UniProt Q00613: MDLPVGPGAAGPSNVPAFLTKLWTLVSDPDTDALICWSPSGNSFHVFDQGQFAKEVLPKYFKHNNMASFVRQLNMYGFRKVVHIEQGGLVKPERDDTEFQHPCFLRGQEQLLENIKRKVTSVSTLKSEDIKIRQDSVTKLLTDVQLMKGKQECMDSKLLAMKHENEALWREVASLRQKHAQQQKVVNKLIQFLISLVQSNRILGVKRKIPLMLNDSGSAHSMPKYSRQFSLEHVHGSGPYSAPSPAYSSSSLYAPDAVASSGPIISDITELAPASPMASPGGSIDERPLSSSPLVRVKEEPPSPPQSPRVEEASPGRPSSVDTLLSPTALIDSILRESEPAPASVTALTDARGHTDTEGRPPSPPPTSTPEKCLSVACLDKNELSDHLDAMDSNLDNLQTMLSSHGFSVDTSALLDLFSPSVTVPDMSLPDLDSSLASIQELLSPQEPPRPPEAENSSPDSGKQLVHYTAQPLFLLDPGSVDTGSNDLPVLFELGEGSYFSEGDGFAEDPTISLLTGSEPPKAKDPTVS
# UniProt O14979: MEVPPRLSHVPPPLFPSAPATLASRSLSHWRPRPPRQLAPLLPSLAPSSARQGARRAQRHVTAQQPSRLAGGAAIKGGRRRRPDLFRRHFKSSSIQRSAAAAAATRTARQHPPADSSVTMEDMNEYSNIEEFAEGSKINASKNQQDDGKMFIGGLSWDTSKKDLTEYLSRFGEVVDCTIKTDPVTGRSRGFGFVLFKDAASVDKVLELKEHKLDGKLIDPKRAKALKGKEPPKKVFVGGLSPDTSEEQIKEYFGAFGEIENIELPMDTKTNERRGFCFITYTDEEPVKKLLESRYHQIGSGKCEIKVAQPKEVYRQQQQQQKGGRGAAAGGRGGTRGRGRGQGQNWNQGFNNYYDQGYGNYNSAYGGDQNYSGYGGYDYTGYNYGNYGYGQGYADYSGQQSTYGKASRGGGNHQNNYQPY
# UniProt P19367: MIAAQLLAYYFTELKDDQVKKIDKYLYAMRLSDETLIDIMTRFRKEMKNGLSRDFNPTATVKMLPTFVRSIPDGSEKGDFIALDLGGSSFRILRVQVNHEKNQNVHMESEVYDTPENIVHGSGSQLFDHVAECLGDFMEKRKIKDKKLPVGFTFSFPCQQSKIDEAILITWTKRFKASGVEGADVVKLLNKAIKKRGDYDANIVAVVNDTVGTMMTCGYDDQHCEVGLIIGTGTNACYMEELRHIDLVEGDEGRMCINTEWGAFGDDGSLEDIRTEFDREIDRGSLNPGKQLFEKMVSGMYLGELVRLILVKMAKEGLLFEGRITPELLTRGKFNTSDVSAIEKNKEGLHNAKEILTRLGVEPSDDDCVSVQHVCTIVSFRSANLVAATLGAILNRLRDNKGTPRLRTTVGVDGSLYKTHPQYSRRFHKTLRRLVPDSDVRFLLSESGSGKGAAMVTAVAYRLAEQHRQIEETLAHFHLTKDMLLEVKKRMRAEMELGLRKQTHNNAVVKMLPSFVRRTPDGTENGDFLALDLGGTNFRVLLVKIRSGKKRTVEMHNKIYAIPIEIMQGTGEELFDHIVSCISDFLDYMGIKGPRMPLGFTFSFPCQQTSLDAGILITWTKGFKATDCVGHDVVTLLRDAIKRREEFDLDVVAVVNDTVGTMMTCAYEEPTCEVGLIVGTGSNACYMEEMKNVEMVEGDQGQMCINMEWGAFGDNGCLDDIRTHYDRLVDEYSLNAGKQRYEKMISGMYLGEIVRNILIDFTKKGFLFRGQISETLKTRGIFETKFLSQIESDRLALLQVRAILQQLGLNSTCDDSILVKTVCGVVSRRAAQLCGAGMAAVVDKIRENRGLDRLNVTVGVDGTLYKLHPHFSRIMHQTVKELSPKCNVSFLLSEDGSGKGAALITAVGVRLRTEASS
# UniProt Q9BUJ2: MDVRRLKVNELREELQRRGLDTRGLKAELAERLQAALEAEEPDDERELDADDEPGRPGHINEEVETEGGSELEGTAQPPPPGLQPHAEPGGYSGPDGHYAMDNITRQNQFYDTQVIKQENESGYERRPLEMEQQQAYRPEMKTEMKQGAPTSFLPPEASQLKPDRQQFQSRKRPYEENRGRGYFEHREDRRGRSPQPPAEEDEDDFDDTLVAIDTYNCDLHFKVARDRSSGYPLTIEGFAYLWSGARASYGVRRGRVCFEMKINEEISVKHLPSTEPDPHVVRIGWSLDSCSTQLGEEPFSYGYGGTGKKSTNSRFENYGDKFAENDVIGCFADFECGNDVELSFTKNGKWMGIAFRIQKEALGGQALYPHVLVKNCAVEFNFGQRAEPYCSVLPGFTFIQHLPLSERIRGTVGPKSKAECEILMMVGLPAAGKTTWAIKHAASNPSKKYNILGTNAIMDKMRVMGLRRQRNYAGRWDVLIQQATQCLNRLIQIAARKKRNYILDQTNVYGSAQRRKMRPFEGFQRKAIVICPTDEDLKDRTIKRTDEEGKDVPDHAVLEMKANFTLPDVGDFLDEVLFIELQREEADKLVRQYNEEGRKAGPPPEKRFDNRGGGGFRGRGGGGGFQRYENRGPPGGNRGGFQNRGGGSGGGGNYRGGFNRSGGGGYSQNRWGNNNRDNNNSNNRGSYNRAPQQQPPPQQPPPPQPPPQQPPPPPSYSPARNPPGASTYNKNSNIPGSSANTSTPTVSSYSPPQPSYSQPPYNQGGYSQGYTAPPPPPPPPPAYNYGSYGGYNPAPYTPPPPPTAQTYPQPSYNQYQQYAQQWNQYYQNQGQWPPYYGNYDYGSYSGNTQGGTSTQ
# UniProt P0DMV8, whole entry, looked up: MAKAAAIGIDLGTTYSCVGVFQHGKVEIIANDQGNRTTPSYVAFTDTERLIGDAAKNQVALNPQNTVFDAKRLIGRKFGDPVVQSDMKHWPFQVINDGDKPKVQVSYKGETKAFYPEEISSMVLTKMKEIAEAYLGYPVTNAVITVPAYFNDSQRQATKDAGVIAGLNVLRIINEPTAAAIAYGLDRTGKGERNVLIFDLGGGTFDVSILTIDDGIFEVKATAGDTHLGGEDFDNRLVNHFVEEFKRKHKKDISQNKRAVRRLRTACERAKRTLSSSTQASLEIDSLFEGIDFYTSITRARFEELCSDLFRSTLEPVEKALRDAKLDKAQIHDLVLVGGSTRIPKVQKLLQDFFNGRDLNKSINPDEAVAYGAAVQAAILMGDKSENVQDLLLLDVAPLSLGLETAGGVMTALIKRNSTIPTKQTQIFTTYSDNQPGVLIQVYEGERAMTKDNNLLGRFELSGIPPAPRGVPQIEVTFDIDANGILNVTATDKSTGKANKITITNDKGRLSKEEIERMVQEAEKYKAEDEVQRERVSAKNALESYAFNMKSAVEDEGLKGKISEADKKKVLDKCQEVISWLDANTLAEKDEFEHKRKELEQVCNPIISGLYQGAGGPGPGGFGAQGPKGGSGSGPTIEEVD
# UniProt P49773: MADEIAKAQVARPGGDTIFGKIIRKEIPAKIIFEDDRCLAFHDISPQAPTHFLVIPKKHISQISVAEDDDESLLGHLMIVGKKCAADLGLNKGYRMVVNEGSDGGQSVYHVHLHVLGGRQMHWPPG
# UniProt P82970: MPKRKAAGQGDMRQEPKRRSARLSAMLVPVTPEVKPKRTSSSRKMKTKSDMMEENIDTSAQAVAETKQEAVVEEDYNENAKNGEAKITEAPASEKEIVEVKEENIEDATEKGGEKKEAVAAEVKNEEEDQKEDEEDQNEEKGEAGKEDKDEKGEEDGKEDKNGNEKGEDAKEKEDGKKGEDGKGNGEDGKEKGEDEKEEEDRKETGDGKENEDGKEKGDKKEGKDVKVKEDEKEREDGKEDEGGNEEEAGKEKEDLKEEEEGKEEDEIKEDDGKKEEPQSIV
# The other results are listed elsewhere or left out.
# Key:
# Assay in all cases: log2 fold change, soluble protein after heating vs DMSO (PISA); higher = thermal stabilisation; K562 lysate, 10 uM; active = over 0.2 and 3.5 SD of the protein, either way, in both replicates (recomputed)
# ibrutinib = compound: C=CC(=O)N1CCC[C@@H](n2nc(-c3ccc(Oc4ccccc4)cc3)c3c(N)ncnc32)C1 [ibrutinib]
# Method in brief: (§1)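 Thermal stability, expressed as log-two fold change relative to solvent controls, is given from duplicates. Crude K562 extract in PBS pH 7.4 with 1 mM MgCl2, at 1 mg/mL protein, was treated with 10 μM compound for 30 min and heated in aliquots for 3 min across 48°C-58°C. After pooling, adjustment to 0.5% NP-40 at 4°C and centrifugation at 21,000xg for 90 min, supernatant protein was measured by TMTpro 16plex LC-MS/MS with channel sums equalised.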
# [1] = compound: CC(=O)c1cnc2ccc(-c3cc(Cl)c(O)c(Cl)c3)nc2c1N[C@H]1CC[C@H](CN(C)C)CC1
# Method in brief: as §1
# ralimetinib = compound: CC(C)(C)Cn1c(N)nc2ccc(-c3[nH]c(C(C)(C)C)nc3-c3ccc(F)cc3)nc21 [ralimetinib]
# Method in brief: as §1
# [2] = compound: CC(C)(O)CC(=O)NCCn1ccc2ncnc(Nc3ccc(Oc4cccc(C(F)(F)F)c4)c(Cl)c3)c21
# Method in brief: as §1
# [3] = compound: CC(C)C1=C2N=C(C=C(N2N=C1)NCC3=CC=CC=C3)NCCCCCCN
# Method in brief: as §1
# [4] = compound: CC1=C(C(CC(=O)N1)C2=CC=C(C=C2)C(F)(F)F)C(=O)NC3=C(C=C4C(=C3)C=NN4)F
# Method in brief: as §1
# [5] = compound: CC1=C(C2=C(C=C1)C(=O)C3=CC=CC=C3N2CCCN)C
# Method in brief: as §1
# [6] = compound: CC1=C(C=C(C=C1)NC(=O)C2=CC(=CC=C2)C(C)(C)C#N)NC3=CC4=C(C=C3)N=CN(C4=O)C
# Method in brief: as §1
# [7] = compound: CC1=C(C=C(C=C1)NC(=O)C2=CC(=CC=C2)N(C)C)NC(=O)C3=CC=C(C=C3)O
# Method in brief: as §1
# [8] = compound: CC1=CC=C(C=C1)SC2=C3C=C(SC3=CN=C2)C(=O)N
# Method in brief: as §1
# vemurafenib = compound: CCCS(=O)(=O)Nc1ccc(F)c(C(=O)c2c[nH]c3ncc(-c4ccc(Cl)cc4)cc23)c1F [vemurafenib]
# Method in brief: as §1
# [9] = compound: CCCS(=O)(=O)Nc1ccc(F)c(C(=O)c2c[nH]c3ncc(Cl)cc23)c1F
# Method in brief: as §1
# barasertib = compound: CCN(CCCOc1ccc2c(Nc3cc(CC(=O)Nc4cccc(F)c4)[nH]n3)ncnc2c1)CCOP(=O)(O)O [barasertib]
# Method in brief: as §1
# [10] = compound: CC[C@@H]1C(=O)N(C)c2cnc(Nc3ccc(C(=O)NC4CCN(C)CC4)cc3OC)nc2N1C1CCCC1
# Method in brief: as §1
# volasertib = compound: CC[C@@H]1C(=O)N(C)c2cnc(Nc3ccc(C(=O)N[C@H]4CC[C@H](N5CCN(CC6CC6)CC5)CC4)cc3OC)nc2N1C(C)C [volasertib]
# Method in brief: as §1
# [11] = compound: CCn1c(C(=O)N(C2CC2)C2CC2)cc2c3c(ncn3C)c(Nc3cc(C)n(C)n3)nc21
# Method in brief: as §1
# [12] = compound: CCn1cc(-c2ccnc3[nH]c(-c4cccc(CN(C)C)c4)cc23)c(-c2ccc(NC(=O)N(C)C)cc2)n1
# Method in brief: as §1
# [13] = compound: CN1CCC(CNc2ccc3ncc(-c4cccc(OC(F)(F)F)c4)n3n2)CC1
# Method in brief: as §1
# saracatinib = compound: CN1CCN(CCOc2cc(OC3CCOCC3)c3c(Nc4c(Cl)ccc5c4OCO5)ncnc3c2)CC1 [saracatinib]
# Method in brief: as §1
# sotrastaurin = compound: CN1CCN(c2nc(C3=C(c4c[nH]c5ccccc45)C(=O)NC3=O)c3ccccc3n2)CC1 [sotrastaurin]
# Method in brief: as §1
Target,log2 fold change (ibrutinib),log2 fold change [1],log2 fold change (ralimetinib),log2 fold change [2],log2 fold change [3],log2 fold change [4],log2 fold change [5],log2 fold change [6],log2 fold change [7],log2 fold change [8],log2 fold change (vemurafenib),log2 fold change [9],log2 fold change (barasertib),log2 fold change [10],log2 fold change (volasertib),log2 fold change [11],log2 fold change [12],log2 fold change [13],log2 fold change (saracatinib),log2 fold change (sotrastaurin)
HSF1 (UniProt Q00613),inactive: 0.019,inactive: -0.035,inactive: 0.006,inactive: 0.004,inactive: -0.005,inactive: 0.01,inactive: 0.03,inactive: 0.006,inactive: 0.028,inactive: 0.001,inactive: -0.022,inactive: 0.036,inactive: 0.022,inactive: -0.007,inactive: -0.016,inactive: -0.016,inactive: 0.013,inactive: -0.108,inactive: 0.015,inactive: 0.017
HNRNPDL (UniProt O14979),inactive: 0,active: -0.692,inactive: -0.027,inactive: 0.014,inactive: -0.011,inactive: 0.013,inactive: -0.016,inactive: 0.111,inactive: -0.011,inactive: 0,inactive: -0.039,inactive: 0.026,inactive: -0.03,inactive: 0.008,inactive: -0.002,inactive: 0.003,inactive: 0.043,inactive: 0.018,inactive: -0.036,inactive: -0.098
HK1 isoform 2 (UniProt P19367),inactive: -0.007,inactive: 0.005,inactive: -0.008,inactive: 0.021,inactive: -0.029,inactive: -0.029,inactive: 0.025,inactive: 0.023,inactive: 0.016,inactive: 0.008,inactive: 0.009,inactive: 0.003,inactive: 0.012,inactive: -0.023,inactive: -0.004,inactive: 0.014,inactive: -0.008,inactive: -0.013,inactive: -0.015,inactive: 0.004
HECTD4 (UniProt J3KPF0),inactive: 0.017,inactive: -0.024,inactive: 0.001,inactive: 0.007,inactive: -0.032,inactive: -0.028,inactive: -0.036,inactive: 0.032,inactive: 0.021,inactive: 0.009,inactive: 0.04,inactive: 0.035,inactive: 0.014,inactive: 0.009,inactive: -0.09,inactive: 0.037,inactive: 0.007,inactive: 0.043,inactive: 0.006,inactive: -0.024
HNRNPUL1 (UniProt Q9BUJ2),inactive: 0.028,inactive: -0.13,inactive: 0.017,inactive: -0.014,inactive: -0.019,inactive: 0,inactive: -0.012,active: -0.275,inactive: 0,inactive: 0.007,inactive: -0.042,inactive: 0.005,inactive: -0.004,inactive: -0.032,inactive: 0.005,inactive: 0.034,inactive: 0.017,inactive: 0.019,inactive: 0.041,inactive: 0.014
HSPA1A (UniProt P0DMV8),inactive: -0.008,inactive: -0.015,inactive: -0.026,inactive: 0.008,inactive: 0.022,inactive: 0,inactive: 0.001,inactive: -0.009,inactive: 0.022,inactive: -0.008,inactive: -0.023,inactive: -0.003,inactive: -0.035,inactive: 0.016,inactive: -0.024,inactive: -0.02,inactive: 0.209,inactive: -0.067,inactive: 0.004,inactive: 0.019
HINT1 (UniProt P49773),inactive: 0.049,inactive: 0.005,inactive: 0.016,inactive: 0.028,inactive: -0.005,inactive: -0.043,inactive: 0.071,inactive: -0.04,inactive: 0.005,inactive: 0.026,inactive: 0.005,inactive: 0.001,inactive: 0.1,inactive: 0.021,inactive: 0.036,inactive: -0.016,inactive: 0.012,inactive: -0.031,inactive: -0.01,inactive: -0.021
HMGN5 (UniProt P82970),inactive: -0.035,inactive: -0.012,inactive: -0.064,inactive: -0.021,inactive: 0.006,inactive: -0.004,inactive: -0.035,inactive: -0.011,inactive: 0.036,inactive: -0.056,inactive: -0.007,inactive: -0.011,inactive: -0.044,inactive: 0.016,inactive: 0.013,inactive: -0.044,active: 0.3,inactive: -0.164,inactive: -0.027,inactive: -0.029

# Some entries already given with just log2 fold change (ralimetinib) and log2 fold change [7]:
Target,log2 fold change (ralimetinib),log2 fold change [7]
HINT1 (UniProt P49773),inactive: 0.016,inactive: 0.005
HMGN5 (UniProt P82970),inactive: -0.064,inactive: 0.036
